Results are given in words; binding and its absence hold for the method and conditions named. In cells and extracts the contact can be indirect. Some results given as binding are weak or reduced against the parent protein; the word gives no strength.

Our source for the binding values is PMC8514450.

The assay has as its target Flag-p62 (UniProt Q13501). The assay can be described thus: co-IP; HeLa cells transfected with the indicated expression vectors, treated with or without celastrol (2 uM, 1 h); lysis in 25 mM Tris-HCl pH 7.4, 150 mM NaCl, 1% Triton X-100, 5 mM EDTA; anti-Flag antibody, protein A/G-Sepharose; Western blot. On the technique in general: Immunoblotting shows a protein as a band on a membrane.

Regarding Nur77 (from UniProt P22736-1 1-598), the binding result is given as “binds”.
